# From publication PMC8266859
# The chains behind the UniProt entries cited, without tags or fusion partners. Where a name states a change or a piece, a line headed by the entry shows the natural chain unless it says otherwise.
# UniProt P02525: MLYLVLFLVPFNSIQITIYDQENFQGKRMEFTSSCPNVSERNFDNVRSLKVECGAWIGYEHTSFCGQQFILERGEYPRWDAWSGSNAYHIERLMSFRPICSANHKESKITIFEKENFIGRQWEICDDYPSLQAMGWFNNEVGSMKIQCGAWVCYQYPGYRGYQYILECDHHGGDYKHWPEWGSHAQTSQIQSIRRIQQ
# Target: T1, phosphatidylinositol transfer protein beta isoform (PITPβ), mCherry fusion from Ad-CMV-mCherry-Pitpnb (UniProt P53811)
# T1 sequence: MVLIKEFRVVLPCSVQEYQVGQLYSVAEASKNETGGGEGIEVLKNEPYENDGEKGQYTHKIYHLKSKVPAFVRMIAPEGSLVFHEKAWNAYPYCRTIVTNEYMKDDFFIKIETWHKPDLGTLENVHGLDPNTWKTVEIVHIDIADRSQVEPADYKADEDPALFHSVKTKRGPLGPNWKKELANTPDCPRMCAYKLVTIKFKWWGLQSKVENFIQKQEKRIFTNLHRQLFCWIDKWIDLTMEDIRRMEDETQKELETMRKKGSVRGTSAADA
# Experiment: co-IP; lysates of wildtype mouse RPE flatmounts infected with Ad-CMV-mCherry-Pitpnb (or mCherry control) and Ad-CMV-A3 or Ad-CMV-A1 for 16 h; starved 2 h, with or without 50 ng/mL EGF for 30 min; RFP magnetic beads (Chromotek) 2 h at 4 °C; wash 10 mM Tris/Cl pH 7.5, 150 mM NaCl, 0.5 mM EDTA; western blot
substance,measurement,value
"βA1-crystallin (shorter isoform of βA3/A1-crystallin), from Ad-CMV-A1 (from UniProt P02525)",binding,binds

# No constants are given. Whether binding was seen depends on the method and setting. In cells and extracts the contact can be indirect. Binding calls can cover weak binding; strength is not graded here. Tags and fused reporters may be left off the sequences shown.
